Source: paper PMC4525488, “Structure-based Mechanistic Insights into Terminal Amide Synthase in Nosiheptide-Represented Thiopeptides Biosynthesis” (Scientific Reports, 2015)
These are yes or no findings as the source states them, for the method shown. Some entries that bind do so weakly or less than the wild type.

Biological target: T1, C-terminal NosA_(112-151) peptide (UniProt C6FX40)
T1 sequence: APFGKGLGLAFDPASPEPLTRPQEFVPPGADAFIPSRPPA
Assay: NMR titration; 1H-15N HSQC of 15N-labeled NosA_(112-151) free and with unlabeled NosA_(1-111) (NosA_(1-111) : NosA_(112-151) = 1:1.2), 293 K, 50 mM Na2HPO4, 50 mM NaCl, 0.01% NaN3, pH 7.0, 10% D2O; both purified

binding: binds weakly
B1: truncated NosA_(1-111) variant (domain or fragment, UniProt C6FX40 1-111, looked up)
chain: MTEHPAQQLYCTVVLWDLSRSAATVASLRAYLRDHAVDAYTTVPGLRQKTWISSTGPEGEQWGAVYLWDSPEAAYGRPPGVSKVVELIGYRPTERRYYSVEAATEGPAAAA
notes: NosA, terminal amide synthase of nosiheptide biosynthesis
